Experimental data published in patent US20090221440A1.
These are yes or no findings as the source states them, for the method shown. Some binding calls cover weakened binding; strength is not graded here.

Biological target: IFP-F[1]-AKT1, P31749
Experiment: IFP fragment complementation (PCA) in HeLa Tet-on cells
Conditions: remark: other sources report otherwise

B1: PDK1-IFP-F[2], O15530 1-556 (enzyme, UniProt O15530 1-556, looked up, not shown: large carriers)
chain: MARTTSQLYDAVPIQSSVVLCSCPSPSMVRTQTESSTPPGIPGGSRQGPAMDGTAAEPRPGAGSLQHAQPPPQPRKKRPEDFKFGKILGEGSFSTVVLARELATSREYAIKILEKRHIIKENKVPYVTRERDVMSRLDHPFFVKLYFTFQDDEKLYFGLSYAKNGELLKYIRKIGSFDETCTRFYTAEIVSALEYLHGKGIIHRDLKPENILLNEDMHIQITDFGTAKVLSPESKQARANSFVGTAQYVSPELLTEKSACKSSDLWALGCIIYQLVAGLPPFRAGNEYLIFQKIIKLEYDFPEKFFPKARDLVEKLLVLDATKRLGCEEMEGYGPLKAHPFFESVTWENLHQQTPPKLTAYLPAMSEDDEDCYGNYDNLLSQFGCMQVSSSSSSHSLSASDTGLPQRSGSNIEQYIHDLDSNSFELDLQFSEDEKRLLLEKQAGGNPWHQFVENNLILKMGPVDKRKGLFARRRQLLLTEGPHLYYVDPVNKVLKGEIPWSQELRPEAKNFKTFFVHTPNRTYYLMDPSGNAHKWCRKIQEVWRQRYQSHPDAAVQ
- binding: binds
